Results taken from PubChem BioAssay AID216 (DTP/NCI, 2004).
The list shows only some results of the screen, not a fair sample: its compounds were picked by chemical class. Not every dose and run of a compound is shown. T/C is the treated group as % of the vehicle group. For survival time, this PubChem deposit counts one and a half times the control or more as active, and values a quarter to a half above the control carry no call in these data; other NCI protocols may use other cut-offs. Some T/C values are marked as having no survivor count here; that says nothing about deaths at the dose. Schedule codes are those of the source, taken here to give the interval after Q, in days (D) or hours (H), and the number of doses after X. Some doses were run more than once; their values stand side by side, smallest first.

System: BDF1 mice, P288 leukemia ip, survival T/C
Assay: NCI In Vivo Anticancer Drug Screen. Data for tumor model P288 Lymphocytic Leukemia (intraperitoneal) in B6D2F1 (BDF1) mice
Settings: T/C endpoint: survival time, mean or median, schedule: Q01DX010 (ip), vehicle: saline, higher T/C = longer survival
Description: The antitumor activity of compounds was measured in mice bearing transplantable tumors. Survival or tumor size were measured and the results are expressed as the measurement made in the treated group (T) divided by the measurement made in the vehicle treated control group (C). The tumor model used in this assay is P288 Lymphocytic Leukemia (intraperitoneal) in B6D2F1 (BDF1) mice

Structure (SMILES): CN(CCCl)CCCl
- T/C (dose: 0.13 mg/kg/injection): 115 [survivor count not shown] and 121 % of control [survivor count not shown]
- T/C (dose: 0.25 mg/kg/injection): 94 [survivor count not shown] and 121 % of control [survivor count not shown]
- T/C (dose: 0.5 mg/kg/injection): 100 [survivor count not shown] and 121 % of control [survivor count not shown]
